The list is a part of this screen's results and no random one: it gathers tests that were run many times, whatever their T/C, doses with no T/C, and many T/C values between a quarter and a half above the control. Other doses and runs of a compound stand elsewhere. T/C gives the treated animals as a percentage of the vehicle group. Some entries give survivors of the animals treated and no T/C: the source files T/C as zero there, which appears to mark a toxic dose or a test without result, not a measured value. Some survivor counts are full or nearly so, which does not show that the dose was tolerated: survival well below the control is almost never listed, so the zero probably covers shortened survival too. Survivors were counted at the toxicity check, usually on the fifth day, unless a day is given; later deaths do not show. Schedules are NCI's codes, taken here to give the interval after Q, in days (D) or hours (H), and the number of doses after X. Additions like (4×) stand for listed records that agree. Some entries hold several experiments; their values stand side by side, smallest first. Some molecules as drawn cover several salts, stereoisomers or complexes of the source; a dose is that of the sample tested. For survival time, this PubChem deposit counts one and a half times the control or more as active, and values a quarter to a half above the control carry no call in these data; other NCI protocols may use other cut-offs. Some T/C values are followed by the survivors on the day toxicity was checked, most often the fifth; without a count, all were alive then.
Tested on: P388 leukemia ip, CD2F1 mice, survival T/C
Assay: NCI In Vivo Anticancer Drug Screen. Data for tumor model P388 Leukemia (intraperitoneal) in CD2F1 (CDF1) mice
Details: T/C endpoint: median survival time, higher T/C = longer survival
[1] = dose: 50.0 mg/kg/injection, schedule: Q01DX009 (ip), vehicle: saline
[2] = dose: 100.0 mg/kg/injection, schedule: Q01DX009 (ip), vehicle: saline
[3] = dose: 200.0 mg/kg/injection, schedule: Q01DX009 (ip), vehicle: saline
[4] = dose: 240.0 mg/kg/injection, schedule: Q01DX005 (ip), vehicle: saline with Tween-80
[5] = dose: 60.0 mg/kg/injection, schedule: Q01DX005 (ip), vehicle: saline with Tween-80
[6] = dose: 120.0 mg/kg/injection, schedule: Q01DX005 (ip), vehicle: saline with Tween-80
[7] = dose: 100.0 mg/kg/injection, schedule: Q01DX005 (ip), vehicle: saline with Tween-80
[8] = dose: 50.0 mg/kg/injection, schedule: Q01DX005 (ip), vehicle: saline with Tween-80
[9] = dose: 200.0 mg/kg/injection, schedule: Q01DX005 (ip), vehicle: saline with Tween-80
[10] = dose: 100.0 mg/kg/injection, schedule: Q01DX005 (ip), vehicle: saline
[11] = dose: 200.0 mg/kg/injection, schedule: Q01DX005 (ip), vehicle: saline
[12] = dose: 200.0 mg/kg/injection, schedule: Q01DX009 (ip), vehicle: saline with Tween-80
[13] = dose: 200.0 mg/kg/injection, schedule: Q01DX005 (ip), vehicle: Klucel (hydroxypropylcellulose) (HPC)
[14] = dose: 100.0 mg/kg/injection, schedule: Q01DX009 (ip), vehicle: saline with Tween-80
[15] = dose: 30.0 mg/kg/injection, schedule: Q01DX005 (ip), vehicle: saline
[16] = dose: 60.0 mg/kg/injection, schedule: Q01DX005 (ip), vehicle: saline
[17] = dose: 120.0 mg/kg/injection, schedule: Q01DX005 (ip), vehicle: saline
[18] = dose: 240.0 mg/kg/injection, schedule: Q01DX005 (ip), vehicle: saline

CC1(O)CC2(O)C=CC3=C(C(=O)c4cccc(O)c4C3=O)C2(O)C(=O)C1O (centres undefined)
survivor count (dose: 3.0 mg/kg/injection, schedule: Q01DX005 (ip), vehicle: distilled water + Tween-80 + alcohol): 3 of 6
survivor count (dose: 3.12 mg/kg/injection, schedule: Q01DX005 (ip), vehicle: distilled water + Tween-80 + alcohol): 0 of 6
survivor count (dose: 6.25 mg/kg/injection, schedule: Q01DX005 (ip), vehicle: distilled water + Tween-80 + alcohol): 0 of 6
survivor count (dose: 12.5 mg/kg/injection, schedule: Q01DX005 (ip), vehicle: distilled water + Tween-80 + alcohol): 0 of 6
survivor count (dose: 25.0 mg/kg/injection, schedule: Q01DX005 (ip), vehicle: distilled water + Tween-80 + alcohol): 0 of 6

CC(O)C([NH-])C(=O)O.CC([NH-])C(=O)O.[Cu+2] (centres undefined)
survivor count [1]: 0 of 6
survivor count [2]: 0 of 6
survivor count [3]: 0 of 6

C=C1C(OC(=O)c2ccccc2)C2[C@@H](OC(=O)CC)[C@@H](C)C[C@]2(O)C(=O)[C@@H](C)/C=C/C(C)(C)C(=O)C(O)[C@H]1OC(=O)C(C)C (some centres undefined)
survivor count [4]: 1 of 6

O=C(Nc1ccc(Cl)cc1)Nc1nnc(-c2cccc(Cl)c2)o1
survivor count (dose: 30.0 mg/kg/injection, schedule: Q01DX005 (ip), vehicle: saline with Tween-80): 6 of 6 (2×)
survivor count [5]: 6 of 6
survivor count [6]: 6 of 6

Cc1cccc2c1Oc1ccccc1C2NC(=O)c1ccccc1 (centres undefined)
survivor count [7]: 5 of 5

CCOc1cccc2c(NCCCCCCCCNc3c4ccccc4nc4c(OCC)cccc34)c3ccccc3nc12
T/C (dose: 0.63 mg/kg/injection, schedule: Q01DX009 (ip), vehicle: other): 129 % of control
T/C (dose: 1.25 mg/kg/injection, schedule: Q01DX009 (ip), vehicle: other): 138 % of control
T/C (dose: 2.5 mg/kg/injection, schedule: Q01DX009 (ip), vehicle: other): 146 % of control
T/C (dose: 5.0 mg/kg/injection, schedule: Q01DX009 (ip), vehicle: other): 141 % of control
T/C (dose: 10.0 mg/kg/injection, schedule: Q01DX009 (ip), vehicle: other): 148 % of control
survivor count (dose: 15.0 mg/kg/injection, schedule: Q01DX009 (ip), vehicle: other): 3 of 4
survivor count (dose: 20.0 mg/kg/injection, schedule: Q01DX009 (ip), vehicle: other): 2 of 4

CCC/C(=N\NC(=S)N1CC2CCC(CC2)C1)c1ccccn1
T/C (dose: 25.0 mg/kg/injection, schedule: Q01DX005 (ip), vehicle: saline with Tween-80): 126 % of control
T/C [8]: 138 % of control
survivor count [8]: 2 of 6
survivor count [7]: 1 of 6
survivor count [9]: 0 of 6

CC1(C)Cc2[nH]c3ccccc3c2C(C)(C)N1
survivor count [4]: 0 of 6

CC(=O)OC1CCC2(C)C(=CCC3C2CCC2(C)C3CC3N(c4ccccc4Cl)C32C(C)=O)C1 (centres undefined)
survivor count (dose: 200.0 mg/kg/injection, schedule: Q01DX001 (ip), vehicle: saline with Tween-80): 6 of 6

Cn1c(CCCC(=O)O)nc2cc(N(CCCl)CCCl)ccc21
T/C (dose: 15.0 mg/kg/injection, schedule: Q04DX003 (ip), vehicle: saline with Tween-80, evaluated on day 20): 145 % of control
T/C (dose: 15.0 mg/kg/injection, schedule: Q04DX003 (ip), vehicle: saline with Tween-80, evaluated on day 30): 145 % of control
survivor count (dose: 20.0 mg/kg/injection, schedule: Q01DX009 (ip), vehicle: saline sonified): 5 of 6
survivor count (dose: 30.0 mg/kg/injection, schedule: Q04DX003 (ip), vehicle: saline with Tween-80): 6 of 6
survivor count (dose: 60.0 mg/kg/injection, schedule: Q04DX003 (ip), vehicle: saline with Tween-80): 6 of 6

COCCOC(C)C(/C=N/N=C(N)N)=N/N=C(N)N (centres undefined)
survivor count [10]: 1 of 6
survivor count [11]: 0 of 6

Cc1csc(Cl)c1NC1=NCCN1
survivor count [11]: 0 of 6

NC(=S)N/N=C/c1ccc2c(c1)OCO2
survivor count [12]: 3 of 6

O=[N+]([O-])c1c(Sc2ccccc2)ncnc1Sc1ccccc1
survivor count [2]: 6 of 6
survivor count [3]: 6 of 6

Cc1ccccc1SSCCN
survivor count [13]: 0 of 5

COc1cc2cc3cc(-c4ccc(Cl)cc4)c(N4CCCCC4)nc3nc2cc1OC
survivor count (dose: 15.0 mg/kg/injection, schedule: Q01DX005 (ip), vehicle: saline with Tween-80): 6 of 6
survivor count [5]: 6 of 6
survivor count [6]: 6 of 6

O=C(NC1CCCCC1)C1C(=O)C(=O)N(C2CCCCC2)C1=O (centres undefined)
survivor count [9]: 1 of 6

CC(=O)OC1CC2CC1C1C3C=CC(C3)C21 (centres undefined)
survivor count [14]: 3 of 6

O=C1c2ccccc2-c2c1c1ccccc1c(=O)n2Cc1ccccc1
survivor count [8]: 5 of 5
survivor count [7]: 5 of 5
survivor count [9]: 5 of 5

O/C(=C/c1ncnc2ccccc12)c1cccc(Cl)c1
survivor count [4]: 6 of 6

C=C(CN(C)C)C(=O)c1cc(C)ccc1C
survivor count (dose: 7.5 mg/kg/injection, schedule: Q01DX005 (ip), vehicle: saline): 1 of 6
survivor count (dose: 15.0 mg/kg/injection, schedule: Q01DX005 (ip), vehicle: saline): 0 of 6
survivor count [15]: 0 of 6
survivor count [16]: 0 of 6
survivor count [17]: 0 of 6
survivor count [18]: 0 of 6

COCC(=O)c1ccc(Cl)cc1
survivor count [1]: 4 of 6

C1CCN2CC3CC(CN4CCCCC34)C2C1 (centres undefined)
survivor count [15]: 0 of 6
survivor count [16]: 0 of 6
survivor count [10]: 0 of 6
survivor count [17]: 0 of 6
survivor count [18]: 0 of 6

COc1c(OCC(O)CN2CCCCC2)c2c(C)coc2c2ccoc12 (centres undefined)
survivor count [13]: 0 of 6

Cc1cccc(NC(=O)CCc2ccc(N3C(N)=NC(N)=NC3(C)C)cc2)c1
T/C [14]: 127 % of control
T/C [12]: 127 and 136 % of control
survivor count (dose: 300.0 mg/kg/injection, schedule: Q01DX009 (ip), vehicle: saline with Tween-80): 5 of 6

OC1(O)/C=C\CCCCC/C=C\1
survivor count [8]: 3 of 5

Nc1cc2c(cc1C(=O)N1CCc3ccccc31)OCO2
survivor count (dose: 400.0 mg/kg/injection, schedule: Q01DX009 (ip), vehicle: other): 0 of 6

CN(Cc1cccc2ccccc12)Cc1cccc2ccccc12
survivor count [9]: 5 of 5

CCCCCCCCCCCCC[N+]1([O-])CCCCC1
survivor count [2]: 3 of 6
survivor count [3]: 0 of 6

[O-]c1ccccc1C=NCCN1CC1.[O-]c1ccccc1C=NCCN1CC1.[Zn+2]
survivor count (dose: 50.0 mg/kg/injection, schedule: Q01DX009 (ip), vehicle: saline with Tween-80): 0 of 6 and 3 of 6
survivor count [14]: 0 of 6
survivor count [12]: 0 of 6

CC12CCCN(CCCl)C1CCC1C2CCC2(C)C1CCCN2CCCl (centres undefined)
T/C (dose: 3.13 mg/kg/injection, schedule: Q01DX001 (ip), vehicle: saline with Tween-80): 126 % of control [5 of 6 alive]
survivor count (dose: 3.13 mg/kg/injection, schedule: Q01DX001 (ip), vehicle: saline): 1 of 6
survivor count (dose: 6.25 mg/kg/injection, schedule: Q01DX001 (ip), vehicle: saline with Tween-80): 0 of 6 and 1 of 6
survivor count (dose: 6.25 mg/kg/injection, schedule: Q01DX001 (ip), vehicle: saline): 0 of 6
survivor count (dose: 25.0 mg/kg/injection, schedule: Q01DX001 (ip), vehicle: saline): 0 of 6 (2×)
survivor count (dose: 50.0 mg/kg/injection, schedule: Q01DX001 (ip), vehicle: saline): 0 of 6 (2×)
survivor count (dose: 100.0 mg/kg/injection, schedule: Q01DX001 (ip), vehicle: saline): 0 of 6 (2×)
